According to PMC2629544:

How the values were obtained:
[1] = target: Myc-Hipk1, expressed in X. laevis embryos (X. laevis); experiment: co-IP; extracts of X. laevis embryos (dorsal or ventral) injected with synthetic RNA for Myc-Hipk1 or Myc-(K/R)Hipk1; 9e10 anti-Myc Protein A Sepharose; western blot for endogenous Tcf3
[2] = target: Myc-Hipk1, in vitro translated (X. laevis); experiment: co-IP; radiolabelled and unlabelled TNT in vitro translation reactions mixed, precipitated with 9e10 anti-Myc antibody cross-linked to Protein A Sepharose; autoradiography
[3] = target: Myc-Hipk1, expressed in X. laevis embryos (X. laevis); experiment: co-IP; extracts of X. laevis embryos injected with synthetic RNAs, lysed at stage 10 (150 mM NaCl, 25 mM Tris pH 7.5, 1% Triton); 9e10 anti-Myc Protein A Sepharose overnight at 4 C; western blot for Dsh-HA

- binding [1]: no binding
B1: endogenous Tcf3 of X. laevis embryos (protein, UniProt P70062 1-554)
chain: MPQLNSGGGDELGANDELIRFKDEGEQEEKSPGEGSAEGDLADVKSSLVNESENHSSDSDSEVERRPPPREAFEKHRDYLTEALRRQQDAAFFKGPPYAGYPFLMIPDLGGHYLPNGALSPSARTYLQMKWPLLDSPSTAGLKDARSPSPAHLSNKVPVVQHPHHMHPLTPLITYSNEHFSPGTPPGHLSPEIDPKTGIPRPPHPSELSPYYPLSPGAVGQIPHPLGWLVPPQGQPMYSIPPGGFRHPYPALAMNASMSSLVSSRFSPHMVPPPHHSLHTSGIPHPAIVSPIVKQEPSSGNISPNLHTKSNMIVKKEEEKKPHIKKPLNAFMLYMKEMRAKVVAECTLKESAAINQILGRRWHSLSREEQAKYYELARKERQLHSQLYPSWSARDNYGKRKKRKREKQSPEMETHTKTKKMCVQHLPADKSCDSPASSHGSMLDSPATPSAALASPAAPAATHSEQAQPLSLTTKPEARAQLSLSHSAAFLASKSPSSSSFSGHLSSPVGSPLLSRPIPLTSSILSPSGVFPSALQALPLLQAQPLSLVTKSSD

- binding [2]: binds
B2: 35S-labelled Dsh (Xdsh), in vitro translated (protein, UniProt P51142 1-736)
chain: MAETKVIYHLDEEETPYLVKVPVPATDIRLRDFKAALGRGHAKYFFKAMDQDFGVVKEEISDDNAKLPCFNDRVVSWLASSEGSQPDSAPPAPATEVRPEPPPPVPPPIPPPPAERTSGIGDSRPPSFHPNVSGSTEQLDQDNESVISMRRDRVRRRESSEQAGVGRGVNGRTERHLSGYESSSTLLTSEIETSICDSEEDDTMSRFSSSTEQSSASRLLKRHRRRRKQRPPRLERTSSFSSVTDSTMSLNIITVTLNMEKYNFLGISIVGQSNERGDGGIYIGSIMKGGAVAADGRIEPGDMLLQVNDINFENMSNDDAVRVLRDIVHKPGPIVLTVAKCWDPSPQGYFTLPRNEPIHPIDPAAWVSHSAALSGSFPVYPGSASMSSMTSSTSVTETELSHALPPVSLFSLSVHTDLASVVKVMASPESGLEVRDRMWLKITIPNAFLGSDVVDWLYHHVEGFQDRREARKFASNLLKAGFIRHTVNKITFSEQCYYIFGDLTGCENYMTNLSLNDNDGSSGASDQDTLAPLPLPGASPWPLLPTFSYQYQAPHPYSTQPPAYHELSSYSYGMGSAGSQHSEGSRSSGSNRSDGGRGMQKDDRSGVAGVGGGDSKSGSGSESEYSTRSSIRRVGGGEAGPPSERSTSSRLPPHHPPSVHSYAAPGVPLSYNPMMLMMMPPPPLPPPGVCPPNSSVPPGAPPLVRDLASVPPELTATRQSFHMAMGNPSEFFVDVM
modifications: 35S-Met-labelled

- binding [3]: binds
B3: HA-Dsh, expressed in X. laevis embryos (protein, UniProt P51142 1-736)
chain: MAETKVIYHLDEEETPYLVKVPVPATDIRLRDFKAALGRGHAKYFFKAMDQDFGVVKEEISDDNAKLPCFNDRVVSWLASSEGSQPDSAPPAPATEVRPEPPPPVPPPIPPPPAERTSGIGDSRPPSFHPNVSGSTEQLDQDNESVISMRRDRVRRRESSEQAGVGRGVNGRTERHLSGYESSSTLLTSEIETSICDSEEDDTMSRFSSSTEQSSASRLLKRHRRRRKQRPPRLERTSSFSSVTDSTMSLNIITVTLNMEKYNFLGISIVGQSNERGDGGIYIGSIMKGGAVAADGRIEPGDMLLQVNDINFENMSNDDAVRVLRDIVHKPGPIVLTVAKCWDPSPQGYFTLPRNEPIHPIDPAAWVSHSAALSGSFPVYPGSASMSSMTSSTSVTETELSHALPPVSLFSLSVHTDLASVVKVMASPESGLEVRDRMWLKITIPNAFLGSDVVDWLYHHVEGFQDRREARKFASNLLKAGFIRHTVNKITFSEQCYYIFGDLTGCENYMTNLSLNDNDGSSGASDQDTLAPLPLPGASPWPLLPTFSYQYQAPHPYSTQPPAYHELSSYSYGMGSAGSQHSEGSRSSGSNRSDGGRGMQKDDRSGVAGVGGGDSKSGSGSESEYSTRSSIRRVGGGEAGPPSERSTSSRLPPHHPPSVHSYAAPGVPLSYNPMMLMMMPPPPLPPPGVCPPNSSVPPGAPPLVRDLASVPPELTATRQSFHMAMGNPSEFFVDVM

Results are given in words; binding and its absence hold for the method and conditions named. Binding seen in cells or lysates may run through a third protein. For part of these data: A result given as binding can be weak or reduced; the word gives no strength. For part of these data: Tags and fused reporters may be left off the sequences shown. Each block holds one binder with its values, some of them ahead of it.
